Data source: PubChem BioAssay AID743454 (Peter MacCallum Cancer Centre, 2014)

Screen: 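Knock-downs lowering viability or raising caspase 3/7 activity in vorinostat-treated resistant cells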 (primary screen)
System: human HCT116-VR colon cancer cells, selected for vorinostat resistance
Reagents: siRNA pool against human genes, 40 nM siRNA pool
Time to read-out: vorinostat for 24 h, read-out about 72 h after transfection
Challenge: vorinostat at 2.5 µM final
Measurement: 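Cell viability by CellTiter-Fluor and caspase 3/7 activity by luminescence, each scaled to mock wells per plate, duplicates averaged, then robust z-scored over all plates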
Scale: viability robust z-score: higher = more viable cells than screen typical; caspase robust z-score: higher = more caspase 3/7 activity than screen typical
Rule for the call: 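Hits are knock-downs in viability class RV1/RV2 or caspase class CA1/CA2, excluding ones that killed cells in the no-drug cell-count arm; hits then retested with single siRNAs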
Shown is one part, drawn at random, of about 18,000 reagents. 450 of all reagents (2.5%) were called active. 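Single biological run; no consistent viability z cut-off exists, so the class columns, not z-scores, define the calls.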 Unmarked entries are inactive.

gene,PubChem SID,viability hit class,caspase hit class,viability robust z-score,caspase robust z-score
XKR6,SID152147703,RV2 (reduced viability) (active),no change,-4.62,2.5
OR6B2,SID134329955,no change,no change,-0.68,-0.26
DYRK1A,SID135620889,no change,no change,0.3,-0.66
MTHFS,SID152151584,no change,no change,0.66,-0.83
PSMD2,SID134321162,no change,no change,-6.11,3.09
DNAAF11,SID152152265,no change,no change,0.34,-0.92
STK17A,SID152148521,no change,no change,-0.26,1.39
TMEM130,SID134320397,no change,no change,-0.72,-0.45
NHSL2,SID134329571,no change,no change,0.68,-0.22
NHSL2,SID152149292,no change,no change,-0.8,0.84
ACTL6B,SID134314169,no change,no change,-0.7,0.41
ALAD,SID152154558,no change,no change,-0.52,-0.16
PTMA,SID134310805,no change,no change,-2.46,2.29
ODAD4,SID152156455,no change,no change,-1.57,1.45
F5,SID152150816,no change,no change,1.16,-0.44
OR4X1,SID152151210,no change,no change,-0.67,2.22
FYRD1,SID134319070,no change,no change,0.28,0.52
AQP2,SID152151664,no change,no change,-0.77,-1.07
FAM217A,SID134322288,no change,no change,0.68,0.27
CAPNS1,SID152150039,no change,no change,-0.28,0.6
ENAM,SID134318848,no change,no change,0.27,-0.97
ALAS1,SID134314040,no change,no change,0.24,-0.72
DNAJC19,SID134320036,no change,no change,-0.76,-1.07
RDH14,SID152146873,no change,no change,-1.3,0.66
GRHPR,SID134313136,no change,no change,-2.13,-1.29
CHMP6,SID135620929,no change,no change,0.32,0.34
TRIL,SID152149919,no change (active),CA1 (caspase activation),0.08,7.55
GJB5,SID152150165,no change,no change,-1.02,0.06
NR2E3,SID135620673,no change,no change,0.58,-0.36
CDHR3,SID152150901,no change,no change,0.22,1.58
LAMA2,SID152152144,no change,no change,1.1,-1.01
CDH4,SID134309983,no change,no change,-0.05,1.2
CCNB2,SID56478568,no change,no change,0.08,0.24
ZNF653,SID152151806,no change,no change,1.46,-0.38
SLC13A4,SID134312442,no change,no change,-0.46,3.62

Next part; the last 7 above are carried over.
gene,PubChem SID,viability hit class,caspase hit class,viability robust z-score,caspase robust z-score
NR2E3,SID135620673,no change,no change,0.58,-0.36
CDHR3,SID152150901,no change,no change,0.22,1.58
LAMA2,SID152152144,no change,no change,1.1,-1.01
CDH4,SID134309983,no change,no change,-0.05,1.2
CCNB2,SID56478568,no change,no change,0.08,0.24
ZNF653,SID152151806,no change,no change,1.46,-0.38
SLC13A4,SID134312442,no change,no change,-0.46,3.62
UPK1B,SID134321207,no change,no change,-0.08,0.82
KRTAP5-3,SID135625272,no change,no change,0.84,0.56
MCM10,SID134323001,no change,no change,0.09,1.84
PPT2,SID134310731,no change,no change,0.21,0.1
SLC24A2,SID134312511,no change,no change,0.7,-0.4
DNASE1,SID135623120,no change,no change,-0.08,0.62
EHF,SID134316693,no change,no change,1.06,0.41
CLDN19,SID134320233,no change,no change,1.28,0
SPATA32,SID152152794,no change,no change,-0.75,1.68
IGFLR1,SID152149569,no change,no change,0.77,0.35
DYRK2,SID152156553,no change,no change,-0.1,-0.9
DNAJB14,SID135623603,no change,no change,1.88,0.42
SPACA5B,SID135625672,no change,no change,0.42,0.03
CLIP2,SID152148282,no change,no change,0.67,0.05
BBC3,SID152155898,no change,no change,0.72,1.73
MAGI3,SID152154544,no change,no change,0.27,1.96
SLCO2A1,SID134312486,no change,no change,0.5,-0.79
CACNG6,SID134321389,no change,no change,-1.7,-0.05
GINS2,SID134324124,no change,no change,-0.76,-1.06
AKAP4,SID56479213,no change,no change,0.93,-0.02
HIRA,SID134317828,no change,no change,-1.54,-0.7
CYP11B2,SID135621695,no change,no change,1.19,-0.55
SEPHS2,SID135621438,no change,no change,0.15,-0.24
CELF5,SID152156492,no change,no change,-0.42,2.38
APEX1,SID134314833,no change,no change,0.2,0.02
C19orf25,SID135623193,no change,no change,-0.13,-0.72
AKR7A2,SID152156118,no change,no change,-0.47,-0.44
BTBD8,SID152149428,no change,no change,1.29,-0.48
APOL3,SID135622524,no change,no change,1.21,1.16
RGS6,SID152149749,no change,no change,0.74,-1.17
TMEM26,SID152154173,no change,no change,0.28,1.57
SPCS1,SID152151196,no change,no change,-1.77,-0.59
NOP9,SID134321708,no change,no change,-1.25,2.8
PRKAB1,SID134312708,no change,no change,-0.68,4.99
VAX2,SID134316754,no change,no change,-0.02,2.25
ASB10,SID135621433,no change,no change,-0.07,-0.36
IYD,SID134329421,no change,no change,0.88,-0.14
MRPL55,SID135623667,no change,no change,0.76,-0.76
